Results from patent publication US20130252334A1, “METHOD OF USING TET-INDUCIBLE TRANSGENES” (UNIVERSITY OF ROCHESTER, priority 2010, published 2013).
Some results were stated once for a whole list of compounds, not compound by compound. For at least one compound, name, drawing or mass did not settle the structure.

Tested on: caspase-3 cleavage
Settings: continuous exposure, 0.5 vs 2.5 μg/mL, hypoxia 0.5% O2

Row | Structure (SMILES) | inhibition of hypoxia-induced caspase-3 cleavage
1 | C[C@H]1c2ccc(C(C)(C)C)c(O)c2C(O)=C2C(=O)[C@]3(O)C(O)=C(C(N)=O)C(=O)[C@@H](N(C)C)[C@@H]3[C@@H](O)[C@@H]21 [9-TB, 9-t-butyl doxycycline] | 50-100%
2 | CC1c2cccc(O)c2C(=O)C2=C(O)C3(O)C(=O)C(C(N)=O)=C(O)C(N(C)C)C3C(O)C21 (centres unmarked) [Dox, 4-[Dimethylamino]-1,4,4a,5,5a,6,11,12a-octahydro-3,5,10,12,12apentahydroxy-6-methyl-1,11-dioxo-2-naphthacenecarboxamide] | 50-100%
